# Results are given in words; binding and its absence hold for the method and conditions named. In cells and extracts the contact can be indirect. Some results given as binding are weak or reduced against the parent protein; the word gives no strength.
# By UniProt entry, the sequences of proteins in these tests, tags left out.
# UniProt Q96CV9: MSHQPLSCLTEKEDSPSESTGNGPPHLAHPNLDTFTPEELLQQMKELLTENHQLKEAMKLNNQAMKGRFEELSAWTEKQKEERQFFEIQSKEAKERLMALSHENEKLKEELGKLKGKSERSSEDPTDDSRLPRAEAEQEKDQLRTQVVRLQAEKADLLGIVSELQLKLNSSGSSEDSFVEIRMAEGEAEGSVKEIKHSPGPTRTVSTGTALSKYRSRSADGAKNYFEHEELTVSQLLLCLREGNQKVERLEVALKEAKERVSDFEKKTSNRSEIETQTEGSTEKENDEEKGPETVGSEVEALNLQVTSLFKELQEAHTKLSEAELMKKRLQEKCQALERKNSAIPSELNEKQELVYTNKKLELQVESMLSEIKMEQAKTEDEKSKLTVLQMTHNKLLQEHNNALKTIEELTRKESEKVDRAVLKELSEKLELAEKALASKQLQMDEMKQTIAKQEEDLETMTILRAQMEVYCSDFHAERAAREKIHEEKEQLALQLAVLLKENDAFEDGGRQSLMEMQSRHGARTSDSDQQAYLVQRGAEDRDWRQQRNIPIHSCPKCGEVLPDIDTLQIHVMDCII
# Target: OPTN in glioblastoma cells (human (endogenous in LN-229)) (UniProt Q96CV9)
# Assay: co-IP; Co-IP targeting OPTN, TRIM16 and MID1 in the LN-229 cell line, Western blot
binder,measurement,value
"MID1 in cells (protein, UniProt O15344 1-667) METLESELTCPICLELFEDPLLLPCAHSLCFNCAHRILVSHCATNESVESITAFQCPTCRHVITLSQRGLDGLKRNVTLQNIIDRFQKASVSGPNSPSETRRERAFDANTMTSAEKVLCQFCDQDPAQDAVKTCVTCEVSYCDECLKATHPNKKPFTGHRLIEPIPDSHIRGLMCLEHEDEKVNMYCVTDDQLICALCKLVGRHRDHQVAALSERYDKLKQNLESNLTNLIKRNTELETLLAKLIQTCQHVEVNASRQEAKLTEECDLLIEIIQQRRQIIGTKIKEGKVMRLRKLAQQIANCKQCIERSASLISQAEHSLKENDHARFLQTAKNITERVSMATASSQVLIPEINLNDTFDTFALDFSREKKLLECLDYLTAPNPPTIREELCTASYDTITVHWTSDDEFSVVSYELQYTIFTGQANVVSLCNSADSWMIVPNIKQNHYTVHGLQSGTKYIFMVKAINQAGSRSSEPGKLKTNSQPFKLDPKSAHRKLKVSHDNLTVERDESSSKKSHTPERFTSQGSYGVAGNVFIDSGRHYWEVVISGSTWYAIGLAYKSAPKHEWIGKNSASWALCRCNNNWVVRHNSKEIPIEPAPHLRRVGILLDYDNGSIAFYDALNSIHLYTFDVAFAQPVCPTFTVWNKCLTIITGLPIPDHLDCTEQLP",binding,binds

# — paper PMC12677614
